Consider one substance from article PMC3923681.

By UniProt entry, the sequences of proteins in these tests, tags left out. Where a name states a change or a piece, a line headed by the entry shows the natural chain unless it says otherwise. Chains listed by the source or under a name are the forms on record and can include a tag or linker.
UniProt Q9UQE7: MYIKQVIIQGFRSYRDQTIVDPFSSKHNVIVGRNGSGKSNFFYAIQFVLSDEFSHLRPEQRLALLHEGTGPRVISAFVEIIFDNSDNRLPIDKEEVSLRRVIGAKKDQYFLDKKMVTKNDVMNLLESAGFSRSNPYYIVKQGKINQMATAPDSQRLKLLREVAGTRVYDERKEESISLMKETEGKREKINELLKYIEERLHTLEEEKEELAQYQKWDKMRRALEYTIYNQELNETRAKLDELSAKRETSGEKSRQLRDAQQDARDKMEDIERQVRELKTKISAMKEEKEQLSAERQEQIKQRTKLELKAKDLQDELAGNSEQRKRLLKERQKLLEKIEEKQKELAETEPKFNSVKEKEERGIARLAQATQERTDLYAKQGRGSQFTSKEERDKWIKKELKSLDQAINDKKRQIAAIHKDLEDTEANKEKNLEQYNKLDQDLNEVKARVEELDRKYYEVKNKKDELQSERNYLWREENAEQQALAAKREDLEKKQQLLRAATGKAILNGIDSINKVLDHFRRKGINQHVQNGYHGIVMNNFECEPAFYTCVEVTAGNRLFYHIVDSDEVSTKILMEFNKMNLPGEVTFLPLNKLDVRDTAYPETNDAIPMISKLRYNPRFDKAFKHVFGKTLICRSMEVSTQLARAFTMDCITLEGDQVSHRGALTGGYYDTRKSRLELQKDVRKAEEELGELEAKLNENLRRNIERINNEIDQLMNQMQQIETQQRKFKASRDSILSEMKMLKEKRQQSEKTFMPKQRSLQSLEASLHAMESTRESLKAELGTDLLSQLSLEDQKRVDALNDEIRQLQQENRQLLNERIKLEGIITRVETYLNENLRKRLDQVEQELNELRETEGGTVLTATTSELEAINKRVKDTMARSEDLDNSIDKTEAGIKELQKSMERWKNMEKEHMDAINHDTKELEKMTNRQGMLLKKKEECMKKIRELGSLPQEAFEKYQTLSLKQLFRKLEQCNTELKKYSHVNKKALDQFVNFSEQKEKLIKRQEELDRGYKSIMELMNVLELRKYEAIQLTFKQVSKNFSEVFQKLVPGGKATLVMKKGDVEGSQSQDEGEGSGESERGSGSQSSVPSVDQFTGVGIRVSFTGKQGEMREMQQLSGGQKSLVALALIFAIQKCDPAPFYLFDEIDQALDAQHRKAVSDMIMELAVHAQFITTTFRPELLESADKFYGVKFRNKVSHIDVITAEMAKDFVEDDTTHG
NIPBL isoform B (short isoform) (Q6KC79-2, form named): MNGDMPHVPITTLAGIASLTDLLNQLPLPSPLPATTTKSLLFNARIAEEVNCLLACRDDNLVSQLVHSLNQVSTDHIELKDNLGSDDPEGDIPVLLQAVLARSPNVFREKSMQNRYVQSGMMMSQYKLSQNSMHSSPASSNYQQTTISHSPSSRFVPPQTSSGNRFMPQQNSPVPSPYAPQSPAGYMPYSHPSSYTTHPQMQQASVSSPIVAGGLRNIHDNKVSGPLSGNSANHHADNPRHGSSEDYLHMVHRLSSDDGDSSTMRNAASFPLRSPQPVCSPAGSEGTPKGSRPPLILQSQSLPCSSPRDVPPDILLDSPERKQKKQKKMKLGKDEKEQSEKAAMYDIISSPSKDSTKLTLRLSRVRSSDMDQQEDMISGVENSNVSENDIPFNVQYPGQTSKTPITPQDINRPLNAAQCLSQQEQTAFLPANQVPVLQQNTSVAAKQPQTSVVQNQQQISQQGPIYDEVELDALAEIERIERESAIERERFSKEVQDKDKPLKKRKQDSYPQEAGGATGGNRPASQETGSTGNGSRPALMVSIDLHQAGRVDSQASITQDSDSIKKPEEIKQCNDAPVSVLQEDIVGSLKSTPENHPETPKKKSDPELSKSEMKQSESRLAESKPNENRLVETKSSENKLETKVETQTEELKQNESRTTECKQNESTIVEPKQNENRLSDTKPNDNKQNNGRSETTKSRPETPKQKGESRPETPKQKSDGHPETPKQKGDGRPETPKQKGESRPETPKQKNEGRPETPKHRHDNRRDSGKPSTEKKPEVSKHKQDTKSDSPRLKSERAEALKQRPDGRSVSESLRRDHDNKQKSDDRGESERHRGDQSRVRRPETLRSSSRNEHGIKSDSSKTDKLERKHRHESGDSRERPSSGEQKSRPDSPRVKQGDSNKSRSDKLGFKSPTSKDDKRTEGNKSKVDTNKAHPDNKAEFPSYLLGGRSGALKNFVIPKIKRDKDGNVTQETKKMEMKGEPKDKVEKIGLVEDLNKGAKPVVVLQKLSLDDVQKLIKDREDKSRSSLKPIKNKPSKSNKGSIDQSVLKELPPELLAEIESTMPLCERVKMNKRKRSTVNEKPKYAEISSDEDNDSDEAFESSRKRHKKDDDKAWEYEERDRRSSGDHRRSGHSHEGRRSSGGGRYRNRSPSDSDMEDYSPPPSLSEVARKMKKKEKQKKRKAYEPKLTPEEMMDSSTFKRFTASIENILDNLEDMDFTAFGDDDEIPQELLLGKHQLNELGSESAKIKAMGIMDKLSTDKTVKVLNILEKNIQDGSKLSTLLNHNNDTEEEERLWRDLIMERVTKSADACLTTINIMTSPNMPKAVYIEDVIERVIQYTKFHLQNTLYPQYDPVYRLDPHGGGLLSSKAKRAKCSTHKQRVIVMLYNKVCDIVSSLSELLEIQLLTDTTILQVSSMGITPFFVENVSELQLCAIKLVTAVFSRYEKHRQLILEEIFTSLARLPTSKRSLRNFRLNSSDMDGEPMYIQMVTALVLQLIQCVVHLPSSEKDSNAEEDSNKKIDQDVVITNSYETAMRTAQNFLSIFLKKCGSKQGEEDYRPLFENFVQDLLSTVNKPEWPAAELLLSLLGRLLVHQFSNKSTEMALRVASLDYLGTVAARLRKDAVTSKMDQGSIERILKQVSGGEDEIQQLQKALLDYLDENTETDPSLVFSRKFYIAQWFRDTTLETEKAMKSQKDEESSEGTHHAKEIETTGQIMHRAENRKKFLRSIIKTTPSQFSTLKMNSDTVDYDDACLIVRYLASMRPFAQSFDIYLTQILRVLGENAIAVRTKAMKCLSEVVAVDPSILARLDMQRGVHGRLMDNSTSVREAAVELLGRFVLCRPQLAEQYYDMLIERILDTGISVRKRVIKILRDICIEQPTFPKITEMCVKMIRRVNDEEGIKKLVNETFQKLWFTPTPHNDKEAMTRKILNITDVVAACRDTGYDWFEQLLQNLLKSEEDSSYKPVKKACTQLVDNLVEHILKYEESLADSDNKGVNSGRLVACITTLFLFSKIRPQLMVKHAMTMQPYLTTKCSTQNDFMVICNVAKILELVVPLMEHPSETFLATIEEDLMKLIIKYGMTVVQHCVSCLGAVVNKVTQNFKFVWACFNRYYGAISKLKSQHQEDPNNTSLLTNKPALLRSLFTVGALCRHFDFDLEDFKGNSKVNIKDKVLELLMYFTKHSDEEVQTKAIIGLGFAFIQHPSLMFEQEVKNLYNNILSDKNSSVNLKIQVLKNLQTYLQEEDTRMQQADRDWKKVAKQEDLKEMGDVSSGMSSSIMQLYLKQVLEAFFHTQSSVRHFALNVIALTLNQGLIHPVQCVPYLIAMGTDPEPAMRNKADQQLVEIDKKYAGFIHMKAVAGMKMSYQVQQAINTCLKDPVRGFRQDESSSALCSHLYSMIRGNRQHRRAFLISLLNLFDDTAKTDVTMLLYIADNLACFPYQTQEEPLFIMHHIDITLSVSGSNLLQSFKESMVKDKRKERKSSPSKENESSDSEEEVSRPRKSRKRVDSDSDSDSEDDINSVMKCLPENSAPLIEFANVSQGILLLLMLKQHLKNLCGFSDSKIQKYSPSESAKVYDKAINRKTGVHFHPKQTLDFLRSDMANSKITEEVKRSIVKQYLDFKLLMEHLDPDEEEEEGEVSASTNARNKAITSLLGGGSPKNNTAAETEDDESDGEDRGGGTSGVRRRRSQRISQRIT

The target of this assay is SMC3 (cohesin subunit) (human (endogenous in HeLa)) (UniProt Q9UQE7). The assay is described as follows: co-IP; anti-SMC3 antibodies, nuclear extract of G1-phase enriched HeLa cells (0.4 M NaCl extraction) diluted to 50% with IP buffer (20 mM Tris-HCl pH 7.5, 100 mM NaCl, 5 mM MgCl2, 0.2% NP40, 1 mM NaF, 0.5 mM DTT), 1 h at 4°C, Protein A beads, 3 washes; Western blots probed with NIPBL#3 (isoform A) and NIPBL#4 (isoform B).

These are yes or no findings as the source states them, for the method shown. In cells and extracts the contact can be indirect.

Regarding “NIPBL isoform B (short isoform) (from UniProt Q6KC79-2 1-2697)”, the binding entry is listed as “no binding”.
